Results reported in article doi:10.1101/2022.04.06.487405.

The chains behind the UniProt entries cited, without tags or fusion partners.
UniProt P26785: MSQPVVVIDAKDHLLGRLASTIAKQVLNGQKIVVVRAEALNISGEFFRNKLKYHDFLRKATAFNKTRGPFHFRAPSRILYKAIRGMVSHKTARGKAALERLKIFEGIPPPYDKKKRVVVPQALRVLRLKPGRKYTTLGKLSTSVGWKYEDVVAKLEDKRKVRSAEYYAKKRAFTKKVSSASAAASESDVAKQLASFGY
UniProt P10664: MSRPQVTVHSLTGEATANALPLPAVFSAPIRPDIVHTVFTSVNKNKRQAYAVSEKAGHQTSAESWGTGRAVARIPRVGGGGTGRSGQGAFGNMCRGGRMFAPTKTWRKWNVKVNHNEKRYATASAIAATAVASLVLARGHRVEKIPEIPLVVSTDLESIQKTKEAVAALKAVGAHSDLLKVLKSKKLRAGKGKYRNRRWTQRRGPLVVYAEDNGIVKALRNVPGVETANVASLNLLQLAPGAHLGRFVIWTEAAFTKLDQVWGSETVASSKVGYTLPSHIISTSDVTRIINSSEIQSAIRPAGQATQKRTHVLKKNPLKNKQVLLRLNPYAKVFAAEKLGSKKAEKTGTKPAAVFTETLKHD

B1: Rpl33B (protein, UniProt P41056 1-107)
chain: MAESHRLYVKGKHLSYQRSKRVNNPNVSLIKIEGVATPQEAQFYLGKRIAYVYRASKEVRGSKIRVMWGKVTRTHGNSGVVRATFRNNLPAKTFGASVRIFLYPSNI
B2: Rpl14A (protein, UniProt P36105 1-138)
chain: MSTDSIVKASNWRLVEVGRVVLIKKGQSAGKLAAIVEIIDQKKVLIDGPKAGVPRQAINLGQVVLTPLTFALPRGARTATVSKKWAAAAVCEKWAASSWAKKIAQRERRAALTDFERFQVMVLRKQKRYTVKKALAKA

target: Rpl16B (tagged YNL069C from the MORF collection) (S. cerevisiae) (UniProt P26785); assay: affinity purification with mass spectrometry

binding, binds:
Rpl4A (from UniProt P10664 1-362)
B1
B2

Results are given in words; binding and its absence hold for the method and conditions named. In cells and extracts the contact can be indirect. These calls come from enrichment with a bait or labelling near it, and not all partners need be listed.
